Some of the results follow. These are further read-outs of the screen, such as a control signal, another cell line or another target. No call is given for them. Most of these compounds were active or inconclusive in the main read-out, so they are no random draw. The note in brackets gives the kind of curve behind each potency; many fits are weak.
Assay: qHTS Assay for Lipid Storage Modulators in Drosophila S3 Cells;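 as to cell number change: cells counted by Cell Tracker Red CMTPX staining in the red channel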
Conditions: BODIPY lipid droplet fluorescence, 18-24 h; for cell number change: measured here: cell count max response, cells fed with added oleic acid
Summary of the method: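 Drosophila S3 cells loaded with oleic acid (400 uM, as added) and compounds at several concentrations; lipid droplets imaged by 488-nm laser-scanning cytometry, 500–530 nm intensity and object ratio to cell channel. Percent activity normalized to 20 uM Triacsin C.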

[1] = measured here: cell number channel AC50, cells fed with added oleic acid
[2] = measured here: lipid fluorescence (Fed channel) AC50, cells fed with added oleic acid

In the case of `Nc1ccc(C(=O)O)c(O)c1`, the AC50 [1] is reported as 13 µM [rising, partial curve, poor fit] and the AC50 [2] is reported as 1.3 µM [falling, full curve, poor fit].

In the case of `CCC(C)C1=CC(=Nc2c(C)n(C)n(-c3ccccc3)c2=O)C=C(C(C)CC)C1=O` (stereo unspecified), the cell number change is reported as 13.9%, the AC50 [1] is reported as 0.116 µM [rising, full curve, poor fit] and the AC50 [2] is reported as 6.51 µM [rising, single point].

With `NS(=O)(=O)c1ccc(CCNCc2cccnc2)cc1` the cell number change was 32.4%.

For `CN(CC(=O)Nc1cccc(F)c1)C(=O)c1ccccc1-n1cnnn1`, the cell number change was -23.7%.

In the case of `CNC(=O)c1cccc(NC(=O)c2ccccc2OCc2ccccc2)c1`, the cell number change is reported as 20.2% and the AC50 [2] is reported as 3.26 µM [falling, full curve].

For `CC(C)NC(=O)COC(=O)c1cncc(Br)c1`, the cell number change was -23.7%, the AC50 [1] was 0.00651 µM [falling, full curve, poor fit] and the AC50 [2] was 0.13 µM [falling, full curve].

With `Cc1nn(-c2ccccc2)c(C)c1/C=C/C(=O)OCC(=O)N(C)C1CCS(=O)(=O)C1` (stereo unspecified) the cell number change was 12.3% and the AC50 [2] was 0.731 µM [falling, partial curve, poor fit].

With `CCOC(=O)c1c(NC(=O)C(=O)N/N=C/c2ccc(O)c(OC)c2)sc2c1CCCCC2` the cell number change was -19%, the AC50 [1] was 0.116 µM [falling, full curve, poor fit] and the AC50 [2] was 1.3 µM [rising, full curve].

For `COc1ccc(/C=N/Nc2cc(C)nc3ccc(Br)cc23)cc1`, the cell number change was -69.8%, the AC50 [1] was 18.4 µM [falling, partial curve] and the AC50 [2] was 25.9 µM [falling, single point].

For `O=C(c1cccs1)N(Cc1cc2ccccc2[nH]c1=O)c1ccccc1`, the cell number change was 12.7%.

Compound `C/C(=N\Nc1ccc(Cl)c(C(=O)O)c1)c1cccc2ccccc12` has a cell number change of 4.96%.

In the case of `COc1ccc(-n2c(C)c(C(C)=O)c(C(C)=O)c2C)cc1`, the cell number change is reported as -13.2% and the AC50 [1] is reported as 0.116 µM [falling, full curve].

For `CN(/C=C1/C(=O)CNC1=O)CCO`, the cell number change was -25.4%, the AC50 [1] was 2.31 µM [falling, full curve, poor fit] and the AC50 [2] was 2.59 µM [falling, full curve, poor fit].

Work on `Cc1ccc(CNC(=O)CCc2c(C)[nH]c(=O)c(C#N)c2C)cc1` yielded a cell number change of 19.7%.

In the case of `OC1CCCN(Cc2c3ccccc3cc3ccccc23)C1` (stereo unspecified), the cell number change is reported as -42.4%, the AC50 [1] is reported as 0.731 µM [falling, full curve] and the AC50 [2] is reported as 5.8 µM [falling, full curve].

In the case of `COCCCn1c(=N)c(C(=O)NCC2CCCO2)cc2c(=O)n3ccccc3nc21` (stereo unspecified), the cell number change is reported as -3.17% and the AC50 [2] is reported as 32.6 µM [rising, single point].

`Cc1cc(O)ccc1NC(=S)NC(=O)c1cncc(Br)c1` gave a cell number change of -25.8%.

For `CC(=O)SC1CC(=O)N(c2ccc(C(C)(C)C)cc2)C1=O` (stereo unspecified), the cell number change was 24% and the AC50 [2] was 0.13 µM [falling, full curve, poor fit].

With `O=C1CC[C@@H](O)CCN1CC[C@H](Sc1ccccc1)c1ccccc1` the cell number change was 9.58% and the AC50 [1] was 0.651 µM [rising, partial curve].

With `O=C(c1ccco1)N1CCN(Cc2cc(=O)c(OCc3ccccc3F)co2)CC1` the cell number change was 25%, the AC50 [1] was 4.61 µM [rising, full curve, poor fit] and the AC50 [2] was 9.2 µM [falling, partial curve].

In the case of `COC(=O)Cn1c(=NC(=O)c2ccc(Cl)s2)sc2cc(C)ccc21`, the cell number change is reported as -50% and the AC50 [1] is reported as 18.4 µM [falling, partial curve].

With `Cc1occc1C(=O)n1nnc2ccccc21` the cell number change was 6% and the AC50 [1] was 2.91 µM [rising, partial curve].

With `CCCCNC(=O)CS(=O)Cc1nc(-c2cccs2)oc1C` (stereo unspecified) the cell number change was 35.9% and the AC50 [1] was 29.1 µM [rising, single point].

In the case of `CCOC(=O)c1ccc(N2C(=O)CC(N3CCN(Cc4ccccc4)CC3)C2=O)cc1` (stereo unspecified), the cell number change is reported as -0.816% and the AC50 [2] is reported as 29.1 µM [falling, single point].

`CCC(Cc1ccccc1)NC(=O)C1CC1` (stereo unspecified) gave a cell number change of -0.702%.

In the case of `CCN(CC)S(=O)(=O)c1ccc2oc(SCC(=O)NCc3ccccc3)nc2c1`, the cell number change is reported as 98.4% and the AC50 [1] is reported as 18.4 µM [rising, partial curve].

In the case of `COc1cccc(N2C(=O)C(c3ccccc3)=C(c3nc4ccccc4s3)C2NC(C)=O)c1` (stereo unspecified), the AC50 [1] is reported as 2.06 µM [rising, partial curve] and the AC50 [2] is reported as 2.31 µM [rising, partial curve].

With `Cc1ccc(S(=O)(=O)NCCNC(C)c2ccc(Br)cc2)cc1` (stereo unspecified) the cell number change was -6.48% and the AC50 [2] was 6.51 µM [rising, single point].

For `CC(=O)Nc1ccc(SCC(=O)Nc2sccc2C#N)cc1`, the cell number change was 29.3%.

In the case of `CC1C2C(C)N(C)C(=O)N(C)C2N(C)C(=O)N1C` (stereo unspecified), the cell number change is reported as -9.79% and the AC50 [2] is reported as 29.1 µM [falling, single point].

With `CN1/C(=C\C(=O)c2cccnc2)C(C)(C)c2ccccc21` the cell number change was 21.5% and the AC50 [2] was 0.146 µM [rising, full curve, poor fit].

`CC(=O)N/N=C(\C)CCc1ccccc1` showed a cell number change of 62.4%.

For `CCOc1cc(/C=N/NC(=O)CCn2nnc3ccccc32)ccc1O`, the cell number change was 5.5% and the AC50 [2] was 29.1 µM [rising, single point].

For `COc1ccc(-c2nn(-c3ccccc3)cc2/C=N/N2C(=O)CSC2=S)cc1`, the cell number change was -65.3%.

Work on `CCc1nc(SCC(=O)Nc2cc(OC)ccc2OC)c2c(C)c(C)sc2n1` yielded a cell number change of -14.1%.

In the case of `COc1ccc(CC(=O)Nc2cccc(/C(C)=N/NC(=O)C3(C)CC3(Br)Br)c2)cc1` (stereo unspecified), the cell number change is reported as -19.4% and the AC50 [2] is reported as 23.1 µM [falling, single point].

With `O=C(O)CC(CC(=O)Nc1nncs1)c1ccccc1` (stereo unspecified) the cell number change was -21.8%.

With `COc1ccccc1C(C)NC(=O)c1ccc(NC(=O)CC2SC(N3CCCC3)=NC2=O)cc1` (stereo unspecified) the cell number change was -10.8% and the AC50 [2] was 25.9 µM [rising, partial curve, poor fit].

For `CCCCc1nnc(NC(=O)CCS(=O)(=O)c2ccc(C)cc2)s1`, the cell number change was -13.3%.

For `COc1ccc(CNCC(O)(c2ccc(F)cc2)c2ccc(F)cc2)cc1OC`, the cell number change was -13.5% and the AC50 [2] was 0.116 µM [falling, full curve, poor fit].

In the case of `O=C(COc1ccc2ccccc2c1)Nc1cccc2cccnc12`, the cell number change is reported as -21% and the AC50 [2] is reported as 14.6 µM [falling, partial curve, poor fit].

Reference: PubChem BioAssay AID2685 (National Center for Advancing Translational Sciences (NCATS), 2010)
